Results are given in words; binding and its absence hold for the method and conditions named. In cells and extracts the contact can be indirect. Some entries that bind do so weakly or less than the wild type. For part of these data: Where a sequence is shown, tags or fusion partners need not be part of it. Blank lines part the entries; values can stand above or below the molecule they belong to.
How the values were obtained:
YFP-tagged CRFR1 = YFP-tagged CRFR1 (UniProt P34998); test: FRET or BRET; Living HEK293 cells, 72 h after transfection; β-arrestin-Rluc as donor, CRFR1-YFP as acceptor; 5 μM coelenterazine; increasing concentrations of CRF, or 500 nM CRF over time; with MAGI-1, MAGI-2 or MAGI-3 overexpressed or knocked down by siRNA
[1] = molecular target: HA-tagged CRFR1 (corticotropin-releasing factor receptor 1), wild type (UniProt P34998); test: co-IP; HEK293 cells co-transfected with HA-CRFR1 (WT or ΔTAV) and the MAGI construct; with or without 100 nM CRF for 30 min; lysis in 50 mM Tris pH 8.0, 150 mM NaCl, 0.1% Triton X-100; 300 μg protein with mouse anti-HA and protein G-Sepharose overnight at 4°C; blots with anti-V5 (MAGI-1) or anti-MAGI-3

Protein sequences, listed by entry. Tags and fused reporters are not part of them. Residues count along the entry.
UniProt P34998, residues 24-415: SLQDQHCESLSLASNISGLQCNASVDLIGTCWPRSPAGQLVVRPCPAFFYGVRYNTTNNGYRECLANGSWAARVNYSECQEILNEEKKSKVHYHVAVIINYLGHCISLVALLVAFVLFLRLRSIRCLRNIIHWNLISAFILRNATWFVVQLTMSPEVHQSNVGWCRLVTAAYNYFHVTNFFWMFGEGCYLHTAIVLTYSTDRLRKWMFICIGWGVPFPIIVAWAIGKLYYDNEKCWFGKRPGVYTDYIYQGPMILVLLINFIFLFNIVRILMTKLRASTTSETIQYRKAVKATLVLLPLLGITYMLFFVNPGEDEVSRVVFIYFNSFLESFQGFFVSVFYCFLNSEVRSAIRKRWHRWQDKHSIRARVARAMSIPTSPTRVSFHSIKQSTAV
UniProt P32121: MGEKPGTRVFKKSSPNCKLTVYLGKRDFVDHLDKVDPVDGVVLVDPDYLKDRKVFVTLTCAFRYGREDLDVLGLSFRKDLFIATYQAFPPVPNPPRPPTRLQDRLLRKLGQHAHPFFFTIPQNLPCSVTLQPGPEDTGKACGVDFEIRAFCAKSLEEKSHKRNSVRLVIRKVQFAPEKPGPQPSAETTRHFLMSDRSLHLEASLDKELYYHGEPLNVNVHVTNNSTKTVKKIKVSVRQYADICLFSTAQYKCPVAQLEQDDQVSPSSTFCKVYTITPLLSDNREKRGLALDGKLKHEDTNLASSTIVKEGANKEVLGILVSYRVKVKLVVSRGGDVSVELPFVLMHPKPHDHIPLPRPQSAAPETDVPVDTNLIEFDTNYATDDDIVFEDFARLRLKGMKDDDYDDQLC
UniProt Q96QZ7: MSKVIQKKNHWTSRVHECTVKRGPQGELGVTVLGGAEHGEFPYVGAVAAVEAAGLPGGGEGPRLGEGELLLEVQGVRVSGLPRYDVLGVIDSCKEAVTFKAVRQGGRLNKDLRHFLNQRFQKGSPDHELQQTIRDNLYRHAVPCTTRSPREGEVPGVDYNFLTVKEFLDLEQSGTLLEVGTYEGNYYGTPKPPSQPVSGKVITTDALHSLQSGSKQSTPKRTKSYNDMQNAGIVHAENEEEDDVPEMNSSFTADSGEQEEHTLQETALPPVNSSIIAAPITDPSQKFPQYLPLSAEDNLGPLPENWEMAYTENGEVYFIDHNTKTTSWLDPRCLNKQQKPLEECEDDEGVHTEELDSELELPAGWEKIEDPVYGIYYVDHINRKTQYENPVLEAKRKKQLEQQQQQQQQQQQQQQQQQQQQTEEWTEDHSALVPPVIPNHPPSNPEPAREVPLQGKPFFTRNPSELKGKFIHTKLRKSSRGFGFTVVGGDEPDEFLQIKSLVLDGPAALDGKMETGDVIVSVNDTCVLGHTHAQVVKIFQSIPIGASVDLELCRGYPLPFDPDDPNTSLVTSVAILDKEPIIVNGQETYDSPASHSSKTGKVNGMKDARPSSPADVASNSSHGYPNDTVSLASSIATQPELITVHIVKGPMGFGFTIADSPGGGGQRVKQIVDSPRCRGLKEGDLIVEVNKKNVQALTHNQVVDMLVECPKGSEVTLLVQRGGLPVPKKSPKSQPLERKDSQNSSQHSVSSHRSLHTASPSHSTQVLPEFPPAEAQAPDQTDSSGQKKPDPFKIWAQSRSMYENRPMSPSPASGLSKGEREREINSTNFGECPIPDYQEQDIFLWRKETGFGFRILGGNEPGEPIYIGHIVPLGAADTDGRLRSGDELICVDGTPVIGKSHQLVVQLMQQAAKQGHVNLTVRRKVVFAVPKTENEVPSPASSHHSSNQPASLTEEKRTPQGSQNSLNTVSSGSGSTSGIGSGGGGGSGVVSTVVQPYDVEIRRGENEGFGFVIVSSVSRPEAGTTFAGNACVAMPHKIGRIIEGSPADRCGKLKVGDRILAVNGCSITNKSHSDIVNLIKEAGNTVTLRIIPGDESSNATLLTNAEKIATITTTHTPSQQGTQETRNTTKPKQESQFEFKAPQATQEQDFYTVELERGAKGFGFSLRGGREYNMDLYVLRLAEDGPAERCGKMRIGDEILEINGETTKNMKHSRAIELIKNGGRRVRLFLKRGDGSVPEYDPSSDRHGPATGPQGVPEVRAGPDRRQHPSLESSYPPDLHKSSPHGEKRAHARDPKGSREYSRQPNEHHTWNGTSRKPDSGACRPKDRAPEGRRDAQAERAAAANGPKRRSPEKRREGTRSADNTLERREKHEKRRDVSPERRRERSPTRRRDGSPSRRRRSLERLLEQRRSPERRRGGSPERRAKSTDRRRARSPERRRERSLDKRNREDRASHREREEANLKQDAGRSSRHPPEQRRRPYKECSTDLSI

binding (YFP-tagged CRFR1): binds
Molecule: rLuc-tagged β-arrestin2 (from UniProt P32121 1-409)

binding [1]: binds
Molecule: His-MAGI-1-V5 (membrane-associated guanylate kinase with inverted orientation 1) (from UniProt Q96QZ7 1-1491)

binding [1]: binds
B1: His-MAGI-3 (membrane-associated guanylate kinase with inverted orientation 3) (protein, UniProt Q5TCQ9 1-1481)
chain: MSKTLKKKKHWLSKVQECAVSWAGPPGDFGAEIRGGAERGEFPYLGRLREEPGGGTCCVVSGKAPSPGDVLLEVNGTPVSGLTNRDTLAVIRHFREPIRLKTVKPGKVINKDLRHYLSLQFQKGSIDHKLQQVIRDNLYLRTIPCTTRAPRDGEVPGVDYNFISVEQFKALEESGALLESGTYDGNFYGTPKPPAEPSPFQPDPVDQVLFDNEFDAESQRKRTTSVSKMERMDSSLPEEEEDEDKEAINGSGNAENRERHSESSDWMKTVPSYNQTNSSMDFRNYMMRDETLEPLPKNWEMAYTDTGMIYFIDHNTKTTTWLDPRLCKKAKAPEDCEDGELPYGWEKIEDPQYGTYYVDHLNQKTQFENPVEEAKRKKQLGQVEIGSSKPDMEKSHFTRDPSQLKGVLVRASLKKSTMGFGFTIIGGDRPDEFLQVKNVLKDGPAAQDGKIAPGDVIVDINGNCVLGHTHADVVQMFQLVPVNQYVNLTLCRGYPLPDDSEDPVVDIVAATPVINGQSLTKGETCMNPQDFKPGAMVLEQNGKSGHTLTGDGLNGPSDASEQRVSMASSGSSQPELVTIPLIKGPKGFGFAIADSPTGQKVKMILDSQWCQGLQKGDIIKEIYHQNVQNLTHLQVVEVLKQFPVGADVPLLILRGGPPSPTKTAKMKTDKKENAGSLEAINEPIPQPMPFPPSIIRSGSPKLDPSEVYLKSKTLYEDKPPNTKDLDVFLRKQESGFGFRVLGGDGPDQSIYIGAIIPLGAAEKDGRLRAADELMCIDGIPVKGKSHKQVLDLMTTAARNGHVLLTVRRKIFYGEKQPEDDSSQAFISTQNGSPRLNRAEVPARPAPQEPYDVVLQRKENEGFGFVILTSKNKPPPGVIPHKIGRVIEGSPADRCGKLKVGDHISAVNGQSIVELSHDNIVQLIKDAGVTVTLTVIAEEEHHGPPSGTNSARQSPALQHRPMGQSQANHIPGDRSALEGEIGKDVSTSYRHSWSDHKHLAQPDTAVISVVGSRHNQNLGCYPVELERGPRGFGFSLRGGKEYNMGLFILRLAEDGPAIKDGRIHVGDQIVEINGEPTQGITHTRAIELIQAGGNKVLLLLRPGTGLIPDHGDWDINNPSSSNVIYDEQSPLPPSSHFASIFEESHVPVIEESLRVQICEKAEELKDIVPEKKSTLNENQPEIKHQSLLQKNVSKRDPPSSHGHSNKKNLLKVENGVTRRGRSVSPKKPASQHSEEHLDKIPSPLKNNPKRRPRDQSLSPSKGENKSCQVSTRAGSGQDQCRKSRGRSASPKKQQKIEGSKAPSNAEAKLLEGKSRRIAGYTGSNAEQIPDGKEKSDVIRKDAKQNQLEKSRTRSPEKKIKRMVEKSLPSKMTNKTTSKEVSENEKGKKVTTGETSSSNDKIGENVQLSEKRLKQEPEEKVVSNKTEDHKGKELEAADKNKETGRFKPESSSPVKKTLITPGPWKVPSGNKVTGTIGMAEKRQ

— article PMC5345131
